PubChem BioAssay AID1508597, Cure First | 2020
Shown is a random part of the about 2,100 reagents, under one of the conditions tested. 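Calls flag viability under 80% in either arm, not effects specific to rucaparib; the reference for percent is not stated.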 Reagent sequences are not shown. Not stated in the record: the 100% reference.

Purpose: 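Genes whose silencing sensitises or protects ovarian cancer cells against rucaparib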 (primary screen)
System: human ovarian carcinoma lines grown from tumours: OCI-P5x (papillary serous) and OCI-C5x (clear cell)
Knock-down reagent: siRNA pool against human genes, 1.25 pmol siRNA per well
Timing: 72 h or 96 h, depending on the cell culture
Conditions: rucaparib 20 µM (about IC30) or vehicle, present until read-out
Rucaparib or vehicle: Rucaparib
Cell line: OCI-P5x (serous)
Measurement: 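Luminescent ATP-based viability assay read 72 or 96 h after transfection, depending on culture, given as normalised percent viability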
Scale: viability, normalised: higher = more viable cells remaining
Hit rule: 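Active when normalised viability falls below 80 percent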
Meaning of the calls: active = viability under 80%; inactive = viability 80% or more

What is on record for L3MBTL1, technical replicate 1?
viability, normalised (%): 41.8; call: active

How did the screen score L3MBTL1, technical replicate 2?
viability, normalised (%): 51.8; call: active

How did the screen score L3MBTL1, technical replicate 3?
viability, normalised (%): 38.3; call: active

What did the screen give for ENOSF1, technical replicate 1?
viability, normalised (%): 88.6; call: inactive

Which result is listed for ENOSF1, technical replicate 2?
viability, normalised (%): 113; call: inactive

What did the screen give for ENOSF1, technical replicate 3?
viability, normalised (%): 120; call: inactive

What did the screen give for CBX1, technical replicate 1?
viability, normalised (%): 80.2; call: inactive

For CBX1, technical replicate 2, what does the deposit list?
viability, normalised (%): 82.9; call: inactive

With CBX1, technical replicate 3, how do the results read?
viability, normalised (%): 97; call: inactive

How did the screen score PHF6, technical replicate 1?
viability, normalised (%): 42; call: active

For PHF6, technical replicate 2, what does the deposit list?
viability, normalised (%): 51; call: active

What is on record for PHF6, technical replicate 3?
viability, normalised (%): 56.2; call: active

Part of the list above, set out differently:
| Target gene | technical replicate | viability, normalised (%) | call |
| --- | --- | --- | --- |
| CBX1 | 1 | 80.2 | inactive |
| CBX1 | 2 | 82.9 | inactive |
